Test: Sensory evaluation of chocolate samples
Conditions: sweetener composition 0.1%, 20 panelists, score 1 to 5, lower score = more pleasant

C=C1C[C@@]23CC[C@H]4[C@@](C)(CCC[C@@]4(C)C(=O)O[C@@H]4O[C@H](CO)[C@@H](O)[C@H](O)[C@H]4O)[C@@H]2CC[C@]1(O[C@@H]1O[C@H](CO)[C@@H](O)[C@H](O[C@@H]2O[C@H](CO)[C@@H](O)[C@H](O)[C@H]2O)[C@H]1O[C@@H]1O[C@H](CO)[C@@H](O)[C@H](O)[C@H]1O)C3 [Pure RebA 97, Rebaudioside A]
5: Bitterness | Licorice taste | Sweetness Lingering
